60 compounds from PubChem BioAssay AID2685 (National Center for Advancing Translational Sciences (NCATS), 2010) can be followed below.

The list shows a part of the results. The main result of the screen is listed elsewhere. These columns were measured beside it and carry no call. Compounds called inactive in the main read-out are mostly missing here. Potencies come from curve fits of mixed quality, noted in brackets.

A short description of this test: qHTS Assay for Lipid Storage Modulators in Drosophila S3 Cells.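 For cell number change: cells counted by Cell Tracker Red CMTPX staining in the red channel.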 The conditions noted are these: BODIPY lipid droplet fluorescence, 18-24 h; for cell number change: measured here: cell count max response, cells fed with added oleic acid. Summed up:
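Drosophila S3 cells got compounds at several concentrations plus oleic acid (400 uM solution). Laser-scanning cytometry with 488 nm excitation read lipid droplets at 500-530 nm and cells at 575-640 nm. Percent activity was relative to 20 uM Triacsin C.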

The mark [1] stands for this setting: measured here: lipid fluorescence (Fed channel) AC50, cells fed with added oleic acid.
Where [2] appears, read: measured here: cell number channel AC50, cells fed with added oleic acid.

As usually defined, the AC50 is the concentration at which the activity in the assay is half-maximal. Lower therefore signals greater potency. Consider `CC(C(=O)Nc1ccccn1)c1ccccc1` (centres undefined), for which the cell number change was -1.85%. In addition, the AC50 under setting [1] was 2.31 µM [rising, partial curve, poor fit]. With `Cn1c(C(=O)NCCc2ccsc2)cc2c(=O)n(C)c3ccccc3c21`, the cell number change is 68%. The AC50 under setting [2] was 0.92 µM [rising, full curve]. Besides, the AC50 under setting [1] was 0.92 µM [rising, full curve].

For the compound `CCOC(=O)Cn1c(=O)c(F)cn(Cc2ccc(OC)c([N+](=O)[O-])c2)c1=O`, the cell number change is -12.9%. Besides, under setting [1], the AC50 was 0.58 µM [rising, single point]. As to `Cc1ccc(C)c(N(C(=O)CNC(=O)c2ccco2)C(C(=O)NC2CCCCC2)c2cccnc2)c1` (centres undefined), the AC50 under setting [1] is 1.3 µM [falling, single point].

Turning to `CCOc1ncnc2c1oc1nc(CC(C)C)c3c(c12)CC(C)(C)OC3`, the cell number change was -3.75%. Moreover, the concentration at half-maximal activity (AC50) under setting [1] is 1.84 µM [falling, partial curve, poor fit]. As for `CCOC(=O)N1CCN(C(=S)NC)CC1`, the cell number change is -17%. The concentration at half-maximal activity (AC50) under setting [2] is 0.146 µM [falling, full curve, poor fit]. Moreover, the AC50 under setting [1] is 3.26 µM [falling, single point]. Consider `N#CCSc1nc2ccccc2c(=O)n1-c1ccccc1`, for which the cell number change is -8.96%. On the same count and under the same terms, to `COc1ccc(N(CC(=O)N/N=C/c2ccc(N(C)C)cc2)S(=O)(=O)c2ccccc2)cc1` belongs 16.2%.

In the case of `COc1ccc(OC)c(NC(=O)C2C3CCC(C3=C(C)C)C2C(=O)O)c1` (centres undefined), the cell number change turned out to be 90.8%. For the same compound, under setting [2], the AC50 was 9.2 µM [rising, partial curve]. With `COCCc1nc2ccc(C(=O)NCc3cccc(-n4cccn4)c3)cc2o1`, the cell number change was -9.14%. On to `CC(=O)NCC(=O)NC1CCCc2c1cnn2-c1ccccc1F` (centres undefined), for which the cell number change came to 14.6%. In addition, under setting [1], the AC50 was 29.1 µM [rising, single point].

As to `Cc1ccc(NC(=O)C(C)N2CCc3ccccc3C2)cc1` (centres undefined), the cell number change came out at 6.41%. Besides, under setting [1], the AC50 is 0.116 µM [falling, single point]. For `CC(OC(=O)CC(C)c1ccccc1)C(=O)Nc1ccc(Cl)cn1` (centres undefined), the cell number change is -50%. Moreover, the AC50 under setting [2] is 29.1 µM [falling, single point]. On to `Cc1ccccc1C(=O)N1CCN(c2ccc(NC(=S)NC(=O)c3ccco3)cc2)CC1`, for which the cell number change was -23%. The concentration at half-maximal activity (AC50) under setting [1] is 0.731 µM [falling, full curve].

For the compound `Cc1ccc(-n2nc(C)c(C3(O)C(=O)N(C(C)C)c4ccccc43)c2N)cc1` (centres undefined), the cell number change amounted to 13.9%. The AC50 under setting [2] is 2.06 µM [falling, partial curve].

Turning to `O=C(CN(C(=O)CCC(=O)Nc1nccs1)c1cccc(F)c1)NCc1ccccc1`, the cell number change came to 65.3%. The AC50 under setting [2] was 32.6 µM [rising, single point]. With `C=CCc1cc(C)ccc1OCCCC(C(=O)OCC)C(=O)OCC`, the cell number change was 9.85%.

Turning to `Cc1cccc(NC(=O)[C@@H]2CCCN2C2=NS(=O)(=O)c3ccccc32)c1C`, the cell number change came out at 13.8%. For the same compound, under setting [1], the AC50 is 2.06 µM [falling, single point]. For the compound `CCOc1ccc(C(=O)OCC(=O)NCc2ccccc2)cc1OCC`, the cell number change stood at 0.0684%. Besides, the AC50 under setting [1] is 0.00517 µM [rising, full curve, poor fit]. `CCCc1cc(=O)n2c([nH]c3ccccc32)c1C#N`: the cell number change worked out at 31.2%. The AC50 under setting [2] was 5.17 µM [rising, partial curve, poor fit]. Further, the AC50 under setting [1] was 2.91 µM [rising, single point]. Regarding `CCC(Sc1nc(C)cc(C)n1)C(=O)NC1=NN=C(c2ccc(C)cc2)CS1` (centres undefined), the cell number change stood at 11.3%. Still for that read-out and setting: to `COc1ccc(Cc2nc3ccc(C(=O)N4CCN(C)C(C)C4)cc3o2)cc1OC` (centres undefined) belongs -15.6%. As to `Cc1ncc(CN2CCCC(C(=O)Nc3ccc(-c4cccc(F)c4)cc3)C2)n1C` (centres undefined), the AC50 under setting [1] is 29.1 µM [rising, single point]. For `CCOc1cc(/C=N/Nc2nc(-c3cccc(S(=O)(=O)N4CCCC4)c3)cs2)ccc1O`, the cell number change stood at 1.3%. Take `Cc1ccc(NC(=O)c2cc(-c3ccco3)nc3ccccc23)cc1S(=O)(=O)N1CCOCC1`: the cell number change was found to be 38.9%. Moreover, under setting [2], the AC50 was 16.4 µM [rising, single point]. The AC50 under setting [1] is 18.4 µM [rising, single point]. In the case of `COc1ccc(C(=O)Nc2c(-c3ccccc3)nc3ccccn23)c(OC)c1`, the cell number change was determined as 1.42%. The AC50 under setting [1] is 14.6 µM [rising, partial curve]. `CC1=NN(C(N)=S)C(=O)C1N=Nc1cccc(C(=O)O)c1` (centres undefined): the cell number change came out at 4.67%. Also, the concentration at half-maximal activity (AC50) under setting [1] was 0.58 µM [rising, full curve]. `CCCC(=O)OCC(=O)Nc1ccc(OC(F)F)cc1`: the cell number change was determined as 43.3%. Also, the half-maximal activity concentration (AC50) under setting [2] was 6.51 µM [rising, partial curve, poor fit]. Besides, the AC50 under setting [1] was 0.00517 µM [rising, full curve, poor fit].

As to `OC1C(O)C(O)C(O)C(O)C1O` (centres undefined), the cell number change is -23.8%. Under setting [1], the AC50 was 29.1 µM [falling, single point]. In the case of `COc1ccc(CCNC(=O)C2CCCN2C(=O)NC2CCCCC2)cc1OC` (centres undefined), the cell number change was -1.6%. Besides, under setting [1], the AC50 is 29.1 µM [falling, single point]. On to `CC(C)CCC(O)(CCC(C)C)C(=O)NN1CCCCC1`, for which the cell number change was -13%. For the compound `COc1cc(/C=C2/C(=N)N3C(=NC2=O)SN=C3S(C)(=O)=O)ccc1OC(=O)c1ccco1`, the cell number change is -11.5%. Moreover, the half-maximal activity concentration (AC50) under setting [1] was 29.1 µM [falling, single point]. For the compound `O=C(NCCN1CCOCC1)c1c(F)c(F)c(F)c(F)c1F`, the cell number change is -37.8%. Further, the AC50 under setting [2] is 0.517 µM [falling, full curve]. Also, under setting [1], the AC50 was 11.6 µM [falling, partial curve]. `O=C(N=NC(=O)c1ccco1)c1ccc2c(O)n(N3C(=O)c4ccccc4C3=O)c(O)c2c1`: the cell number change is -0.782%. The AC50 under setting [2] was 1.64 µM [rising, partial curve, poor fit]. Moreover, the AC50 under setting [1] was 1.84 µM [rising, partial curve, poor fit].

Consider `O=C(N/N=C/c1ccc(Cl)cc1)C(=O)N1CCCCCC1`, for which the cell number change is -3.32%. In addition, under setting [1], the AC50 was 29.1 µM [rising, single point]. As for `Cc1cc(S(=O)(=O)Nc2nc(CN3CCOCC3)nc3sc4c(c23)CCCC4)ccc1F`, the AC50 under setting [2] was 3.66 µM [rising, single point] and the AC50 under setting [1] is 2.31 µM [rising, partial curve]. As for `Cc1cc(F)ccc1NC(=O)C(C)n1c2ccccc2c2nc(=O)cc(C)n21` (centres undefined), the cell number change came out at 28.3%. Also, the AC50 under setting [1] was 6.51 µM [falling, single point]. As for `CCCCn1c(N)c(N(CCOC)C(=O)C2CC(=O)N(c3ccc(CC)cc3)C2)c(=O)[nH]c1=O` (centres undefined), the cell number change was determined as 11.8%. Under setting [1], the AC50 was 6.51 µM [falling, single point].

Regarding `CC(=O)N1C(=O)/C(=C2\SC(=S)N(NC(=O)c3ccc(O)cc3)C2=O)c2ccccc21`, the cell number change was determined as 5.22%. Also, under setting [2], the AC50 was 0.82 µM [rising, single point]. As to `O=c1[nH]c(-c2ccccc2)c(-c2ccccc2)[nH]1`, the cell number change was 8.05%. Also, under setting [1], the AC50 was 3.26 µM [falling, single point]. `Cc1ccc(C(=O)NC(=S)NCc2cccnc2)cc1`: the cell number change was 11.9%. Also, under setting [1], the AC50 was 7.08 µM [rising, full curve, poor fit]. Regarding `CC(c1nc2ccccc2c(=O)[nH]1)N(C)CCOc1ccc(Cl)cc1` (centres undefined), the cell number change was -0.936%. For the compound `CC(=O)OC1(C(F)(F)F)Oc2ccccc2NC1=O` (centres undefined), the cell number change is -34.3%. Further, the AC50 under setting [2] is 3.66 µM [falling, full curve]. In addition, under setting [1], the half-maximal activity concentration (AC50) was 3.66 µM [falling, full curve]. On to `CC1Cc2ccccc2N1C(=O)CCS(=O)(=O)c1cccs1` (centres undefined), for which the cell number change is -17.7%. The AC50 under setting [1] is 0.82 µM [falling, single point].

Turning to `COc1ccc(COc2cc(-c3cccc(OC)c3)nc3ccc(NC(=O)c4ccc(OC)cc4)cc23)cc1`, the cell number change amounted to 8.57%. Also, the concentration at half-maximal activity (AC50) under setting [1] was 8.2 µM [rising, partial curve].

With `NC(=O)c1ccccc1OCC(=O)Nc1cccnc1Cl`, the cell number change is -9.77%. Further, the AC50 under setting [1] is 3.26 µM [rising, partial curve, poor fit]. On to `COc1ccc(NC(=O)c2cccc(N3C(=O)C4C5C=CC(C6CC56)C4C3=O)c2)c(OC)c1` (centres undefined), for which, under setting [1], the AC50 was 6.51 µM [falling, single point].

`Cc1ncc(CN2CCCC(C(=O)Nc3ccc(-c4ccco4)cc3)C2)n1C` (centres undefined): the cell number change was 4.32%. Consider `O=C(c1ccc(S(=O)(=O)NCc2ccco2)cc1)N1CCCC1`, for which, under setting [2], the AC50 is 0.00517 µM [falling, full curve, poor fit].

Take `COc1ccc(CNC(=O)C(C)N2C(=O)COc3ccc(C)cc32)c(OC)c1` (centres undefined): the cell number change was -34.2%. Further, under setting [2], the AC50 is 0.92 µM [falling, full curve, poor fit]. Moreover, the AC50 under setting [1] is 1.46 µM [falling, partial curve]. On to `CC(C)CCN1C(=O)c2ccccc2C1C(=O)NCc1cccnc1` (centres undefined), for which the AC50 under setting [1] was 6.51 µM [rising, single point]. In the case of `Cc1ccc(-c2onc(C)c2C)cc1S(=O)(=O)N1CCOc2ccccc21`, the cell number change was determined as 21.4%. Under setting [1], the AC50 was 29.1 µM [falling, single point]. As to `COc1ccc(NC(=O)C(CC(=O)O)Cc2ccc(Br)cc2)cc1` (centres undefined), the cell number change was determined as 31.2%. Also, the AC50 under setting [2] is 0.00411 µM [rising, full curve, poor fit]. Turning to `CCOc1ccc2[nH]c(=O)c(CN(Cc3ccc(F)cc3)C(=O)N3CCCC3)cc2c1`, the cell number change was -4.88%. Under setting [1], the AC50 was 0.092 µM [rising, full curve, poor fit].

For `Cc1ccccc1C(=O)OC1CCCN(C)C1` (centres undefined), the cell number change worked out at 16.8%.

For `COc1ccc2c(c1)c(=O)oc1cc(OCC(=O)NCC3CCC(C(=O)O)CC3)ccc12` (centres undefined), the cell number change was -0.386%. The AC50 under setting [1] is 0.00461 µM [rising, full curve, poor fit].

Take `Nc1ccc(Cl)c(S(=O)(=O)Nc2ccc(Cl)cc2)c1`: the cell number change was found to be 34.4%. Under setting [2], the AC50 is 6.51 µM [rising, partial curve, poor fit]. Besides, under setting [1], the AC50 was 6.51 µM [rising, partial curve]. Consider `COc1cccc(-c2c(C(=O)N/N=C/c3ccncc3)nnn2-c2nonc2N)c1`, for which the cell number change was 7.66%. Besides, under setting [1], the AC50 was 7.31 µM [falling, partial curve]. As for `CCOc1ccc(Br)cc1S(=O)(=O)NC1CC(C)(C)NC(C)(C)C1`, the cell number change is -9.82%. For the same compound, the AC50 under setting [1] was 0.92 µM [rising, full curve, poor fit].

With `C/C(CCC(C)C)=N\NC(=S)Nc1cc(S(=O)(=O)N2CCOCC2)ccc1N1CCOCC1`, the cell number change is -20.6%. Further, the AC50 under setting [1] was 0.116 µM [falling, full curve, poor fit].
